# From the supplement of paper PMC9744312
# Counter-ions that a name gives are not always drawn. Some of the results follow. The data scatter; read single values as rough.
# Test system: Peyronie's disease tunica albuginea primary fibroblasts
# Assay: inhibition of TGF-beta1-induced alpha-SMA expression (myofibroblast transformation), relative to TGF-beta1-only and untreated controls; higher = stronger inhibition of myofibroblast transformation
# Conditions: 10 µM; TGF-beta1 10 ng/mL; 72 h
row,SMILES,inhibition of TGF-beta1-induced alpha-SMA expression
1,CCOC(=O)[C@H](CCc1ccccc1)N[C@H]1CS[C@H](c2cccs2)CN(CC(=O)O)C1=O [Temocapril HCl],10.6%
2,CCCCC(F)(F)[C@@]1(O)CC[C@H]2[C@@H](CC(=O)[C@@H]2CCCCCCC(=O)O)O1 [Lubiprostone],20%
3,CN(C)N(C)C(=O)[C@@]1(Cc2ccccc2)CCCN(C(=O)[C@@H](Cc2c[nH]c3ccccc23)NC(=O)C(C)(C)N)C1 [Anamorelin],23.6%
4,CN1CCN(CCOc2cc(OC3CCOCC3)c3c(Nc4c(Cl)ccc5c4OCO5)ncnc3c2)CC1 [Saracatinib (AZD0530)],> 100%
5,O=C(NCC(O)CO)c1c(I)c(C(=O)NCC(O)CO)c(I)c(N(CCO)C(=O)CO)c1I (stereo unspecified) [Ioversol],10.6%
6,CO/N=C(\C(=O)N[C@@H]1C(=O)N2C(C(=O)O)=C(COC(N)=O)CS[C@H]12)c1ccco1 [Cefuroxime sodium],11.6%
7,Nc1ccc(S(=O)(=O)Nc2ccnn2-c2ccccc2)cc1 [Sulfaphenazole],-4.07%
8,CNC(=O)c1cnn(-c2nc(N)c3ncn([C@@H]4O[C@H](CO)[C@@H](O)[C@H]4O)c3n2)c1 [Regadenoson],20.3%
9,CCC(=O)c1c(O)cc(O)cc1O [Flopropione],24.1%
10,N#Cc1ccnc(N2C(=O)CC[C@H]2C(=O)N(c2cncc(F)c2)[C@H](C(=O)NC2CC(F)(F)C2)c2ccccc2Cl)c1 [Ivosidenib (AG-120)],26.3%
11,CC1Cc2ccccc2N1NC(=O)c1ccc(Cl)c(S(N)(=O)=O)c1 (stereo unspecified) [Indapamide],2.76%
12,CO/N=C(\C(=O)N[C@@H]1C(=O)N2C(C(=O)O)=C(Cn3ccc(=N)n3CCO)CS[C@H]12)c1csc(N)n1 [Cefoselis Sulfate],3.03%
13,C[C@H](CCC(=O)O)[C@H]1CC[C@H]2[C@@H]3CC[C@@H]4C[C@H](O)CC[C@]4(C)[C@H]3C[C@H](O)[C@]12C [Deoxycholic acid],59.6%
14,Nc1ccc2cc3ccc(N)cc3nc2c1 [Proflavine Hemisulfate],> 100%
15,O=C([O-])[O-].[Na+].[Na+] [Sodium carbonate],4.01%
16,CC(=O)N1C[C@H](O)C[C@H]1C(=O)O [Oxaceprol],-11.3%
17,CO[C@@]1(NC(=O)CSC[C@@H](N)C(=O)O)C(=O)N2C(C(=O)O)=C(CSc3nnnn3C)CS[C@@H]21 [Cefminox Sodium],-4.35%
18,CCCCCCCCCCCCCCCC(=O)O[C@@H]1[C@@H](O)[C@@H](O)[C@@H]([C@H](NC(=O)[C@@H]2C[C@@H](CCC)CN2C)[C@H](C)Cl)O[C@@H]1SC [Clindamycin palmitate HCl],24.1%
19,N#Cc1cc(-c2n[nH]c(-c3ccncc3)n2)ccn1 [Topiroxostat],3.65%
20,Cc1c(F)cc(C(=O)NC2CC2)cc1-c1ccc(C(=O)NCC(C)(C)C)cn1,24.8%
21,CC[C@H]1OC(=O)[C@H](C)[C@@H](O[C@H]2C[C@@](C)(OC)[C@@H](O)[C@H](C)O2)[C@H](C)[C@@H](O[C@@H]2O[C@H](C)C[C@H](N(C)C)[C@H]2O)[C@](C)(O)C[C@@H](C)[C@@H]2N[C@@H](COCCOC)O[C@H]([C@H]2C)[C@]1(C)O [Dirithromycin],-12.8%

# Fetched one by one from the entries so far, 4 records:
row,SMILES,inhibition of TGF-beta1-induced alpha-SMA expression
14,Nc1ccc2cc3ccc(N)cc3nc2c1 [Proflavine Hemisulfate],> 100%
19,N#Cc1cc(-c2n[nH]c(-c3ccncc3)n2)ccn1 [Topiroxostat],3.65%
13,C[C@H](CCC(=O)O)[C@H]1CC[C@H]2[C@@H]3CC[C@@H]4C[C@H](O)CC[C@]4(C)[C@H]3C[C@H](O)[C@]12C [Deoxycholic acid],59.6%
15,O=C([O-])[O-].[Na+].[Na+] [Sodium carbonate],4.01%

# Next part:

row,SMILES,inhibition of TGF-beta1-induced alpha-SMA expression
1,O=C1CC2(CCCC2)CC(=O)N1CCCCN1CCN(c2ncccn2)CC1 [Buspirone HCl],16.6%
2,C[C@H](O)C(=O)Nc1c(I)c(C(=O)NC(CO)CO)c(I)c(C(=O)NC(CO)CO)c1I [Iopamidol],-16.8%
3,OC[C@H]1O[C@H](O[C@H]2[C@H](O)[C@@H](O)C(O)O[C@@H]2CO)[C@H](O)[C@@H](O)[C@@H]1O (mixture of isomers) [Maltose],11.1%
4,COC(=O)N(C)c1c(N)nc(-c2nn(Cc3ccccc3F)c3ncccc23)nc1N [Riociguat (BAY 63-2521)],4.61%
5,CC[C@H](C)[C@@H]1NC(=O)[C@H](CCCNC(=N)N)NC(=O)[C@H](CC(=O)O)NC(=O)[C@H](CCSC)NC(=O)[C@H](CCCNC(=N)N)NC(=O)CNC(=O)CNC(=O)[C@H](Cc2ccccc2)NC(=O)[C@@H](NC(=O)[C@H](CO)NC(=O)[C@H](CO)NC(=O)[C@H](CCCNC(=N)N)NC(=O)[C@H](CCCNC(=N)N)NC(=O)[C@H](CC(C)C)NC(=O)[C@@H](N)CO)CSSC[C@@H](C(=O)N[C@@H](CC(N)=O)C(=O)N[C@@H](CO)C(=O)N[C@@H](Cc2ccccc2)C(=O)N[C@@H](CCCNC(=N)N)C(=O)N[C@@H](Cc2ccc(O)cc2)C(=O)O)NC(=O)CNC(=O)[C@H](CC(C)C)NC(=O)CNC(=O)[C@H](CO)NC(=O)[C@H](CCC(N)=O)NC(=O)[C@H](C)NC(=O)CNC1=O [Carperitide Acetate],15.2%
6,Oc1ccc(OCc2ccccc2)cc1 [Monobenzone],33.6%
7,"CNC(=O)[C@H](Cc1c[nH]c2ccccc12)NC(=O)[C@@H](CC(=O)NO)CC(C)C [Ilomastat (GM6001, Galardin)]",30.4%
8,C[C@H]1C[C@H]2[C@@H]3CCC4=CC(=O)C=C[C@]4(C)[C@@]3(F)[C@@H](O)C[C@]2(C)[C@@]1(O)C(=O)CO [Betamethasone],61.4%
9,CC(=O)Oc1c(C)c(C)c2c(c1C)CCC(C)(CCC[C@H](C)CCC[C@H](C)CCCC(C)C)O2 (stereo partly specified) [Vitamin E Acetate],-8.73%
10,O=C(NCCO[N+](=O)[O-])c1cccnc1 [Nicorandil],-11.8%
11,Cc1ccc(Cl)c(Nc2ccccc2C(=O)O)c1Cl [Meclofenamate Sodium],36.5%
12,C=C1/C(=C\C=C2/CCC[C@]3(C)[C@@H]([C@H](C)/C=C/[C@@H](O)C4CC4)CC[C@@H]23)C[C@@H](O)C[C@@H]1O [Calcipotriene],23.3%
13,CCCN(CCC)C(=O)C1=Cc2ccc(-c3ccc(C(=O)N4CCCC4)cc3)cc2N=C(N)C1 [Motolimod (VTX-2337)],33.8%
14,CN(C)CCOc1ccc(/C(=C(/CCCl)c2ccccc2)c2ccccc2)cc1 [Toremifene Citrate],7.22%
15,CCN1CCN(C(=O)N[C@@H](C(=O)N[C@@H]2C(=O)N3C(C(=O)O)=C(CSc4nnnn4C)CS[C@H]23)c2ccc(O)cc2)C(=O)C1=O [Cefoperazone],7.82%
16,CCN1CCN(C(=O)N[C@@H](C(=O)N[C@@H]2C(=O)N3C(C(=O)O)=C(CSc4nnnn4C)CS[C@H]23)c2ccc(O)cc2)C(=O)C1=O [Cefoperazone sodium],21.7%
17,CO[C@@]12[C@H](COC(N)=O)C3=C(C(=O)C(C)=C(N)C3=O)N1C[C@@H]1N[C@@H]12 [Mitomycin C],84.9%
18,CC1=Nc2ccc(Cl)cc2S(=O)(=O)N1 [Diazoxide],20.9%
19,CCn1nc(C(=O)O)c(=O)c2cc3c(cc21)OCO3 [Cinoxacin],10.4%
20,CCOc1nc2cccc(C(=O)O)c2n1Cc1ccc(-c2ccccc2-c2noc(=O)[nH]2)cc1 [Azilsartan],8.26%
21,COCCOC(=O)C1=C(C)NC(C)=C(C(=O)OC/C=C/c2ccccc2)C1c1cccc([N+](=O)[O-])c1 (stereo unspecified) [Cilnidipine],-18.9%

row,SMILES,inhibition of TGF-beta1-induced alpha-SMA expression
1,COc1cc(O)c(C(=O)Nc2nc(C(=O)NCCN(C(C)C)C(C)C)cs2)cc1OC [Acotiamide],37.9%
2,COc1cc(O)c(C(=O)Nc2nc(C(=O)NCCN(C(C)C)C(C)C)cs2)cc1OC [Acotiamide hydrochloride],-2.18%
3,CC(C)(Oc1ccc(C(=O)c2ccc(Cl)cc2)cc1)C(=O)O [Fenofibric acid],0.917%
4,O=C(O)/C=C/c1ccc(Cn2ccnc2)cc1 [Ozagrel sodium],-14.7%
5,O=C(O)/C=C/c1ccc(Cn2ccnc2)cc1 [Ozagrel HCl],6.33%
6,O=C(O)/C=C/c1ccc(Cn2ccnc2)cc1 [Ozagrel],28.2%
7,COc1cc2nccc(Oc3ccc(NC(=O)C4(C(=O)Nc5ccc(F)cc5)CC4)cc3)c2cc1OC [Cabozantinib malate (XL184)],-59.1%
8,COc1cc2nccc(Oc3ccc(NC(=O)C4(C(=O)Nc5ccc(F)cc5)CC4)cc3)c2cc1OC,-252%
9,CCCc1nc(C)c2c(=O)nc(-c3cc(S(=O)(=O)N4CCN(CC)CC4)ccc3OCC)[nH]n12 [Vardenafil HCl Trihydrate],25.6%
10,OC1(c2ccc(Cl)c(C(F)(F)F)c2)CCN(CCCC(c2ccc(F)cc2)c2ccc(F)cc2)CC1 [Penfluridol],> 100%
11,C[C@@H]1C[C@H]2[C@@H]3CCC4=CC(=O)C=C[C@]4(C)[C@@]3(F)[C@@H](O)C[C@]2(C)[C@@]1(O)C(=O)CO [Dexamethasone (DHAP)],67.5%
12,NC(=NCCCCCCN=C(N)N=C(N)Nc1ccc(Cl)cc1)N=C(N)Nc1ccc(Cl)cc1 [Chlorhexidine?2HCl],> 100%
13,O=C(O)COC(=O)Cc1ccccc1Nc1c(Cl)cccc1Cl [Aceclofenac],92.6%
14,Cc1cnc(NC(=O)C2=C(O)c3ccccc3S(=O)(=O)N2C)s1 [Meloxicam],16.4%
15,O=C(O)CCCc1ccccc1 [Sodium Phenylbutyrate],-23%
16,CC1(C)O[C@@H]2C[C@H]3[C@@H]4CCC5=CC(=O)C=C[C@]5(C)[C@@]4(F)[C@@H](O)C[C@]3(C)[C@]2(C(=O)CO)O1 [Triamcinolone Acetonide],39.4%
17,C[C@H]1CN(C[C@H](Cc2ccccc2)C(=O)NCC(=O)O)CC[C@@]1(C)c1cccc(O)c1 [Alvimopan dihydrate],15.5%
18,Cc1nnc(NS(=O)(=O)c2ccc(N)cc2)s1 [Sulfamethizole],-10.3%
19,COc1cc(NS(C)(=O)=O)ccc1Nc1c2ccccc2nc2ccccc12 [Amsacrine hydrochloride],96.3%
